Results are given in words; binding and its absence hold for the method and conditions named. In cells and extracts the contact can be indirect. Some results given as binding are weak or reduced against the parent protein; the word gives no strength. Where a sequence is shown, tags or fusion partners need not be part of it.
Assays:
Assay in all cases: co-IP; FLAG-tagged FAM83H construct and Myc-tagged partner co-expressed in HEK293 cells; NP40 lysate; anti-FLAG antibody on protein A Dynabeads, 30 min at room temperature, washed twice; immunoblot with anti-Myc (or anti-CK1ε)
[1] = target: T1, N-terminal FLAG-tagged full-length mouse FAM83H (pCMV-Tag2B-Fam83h) (mouse) (UniProt Q148V8)
T1 sequence: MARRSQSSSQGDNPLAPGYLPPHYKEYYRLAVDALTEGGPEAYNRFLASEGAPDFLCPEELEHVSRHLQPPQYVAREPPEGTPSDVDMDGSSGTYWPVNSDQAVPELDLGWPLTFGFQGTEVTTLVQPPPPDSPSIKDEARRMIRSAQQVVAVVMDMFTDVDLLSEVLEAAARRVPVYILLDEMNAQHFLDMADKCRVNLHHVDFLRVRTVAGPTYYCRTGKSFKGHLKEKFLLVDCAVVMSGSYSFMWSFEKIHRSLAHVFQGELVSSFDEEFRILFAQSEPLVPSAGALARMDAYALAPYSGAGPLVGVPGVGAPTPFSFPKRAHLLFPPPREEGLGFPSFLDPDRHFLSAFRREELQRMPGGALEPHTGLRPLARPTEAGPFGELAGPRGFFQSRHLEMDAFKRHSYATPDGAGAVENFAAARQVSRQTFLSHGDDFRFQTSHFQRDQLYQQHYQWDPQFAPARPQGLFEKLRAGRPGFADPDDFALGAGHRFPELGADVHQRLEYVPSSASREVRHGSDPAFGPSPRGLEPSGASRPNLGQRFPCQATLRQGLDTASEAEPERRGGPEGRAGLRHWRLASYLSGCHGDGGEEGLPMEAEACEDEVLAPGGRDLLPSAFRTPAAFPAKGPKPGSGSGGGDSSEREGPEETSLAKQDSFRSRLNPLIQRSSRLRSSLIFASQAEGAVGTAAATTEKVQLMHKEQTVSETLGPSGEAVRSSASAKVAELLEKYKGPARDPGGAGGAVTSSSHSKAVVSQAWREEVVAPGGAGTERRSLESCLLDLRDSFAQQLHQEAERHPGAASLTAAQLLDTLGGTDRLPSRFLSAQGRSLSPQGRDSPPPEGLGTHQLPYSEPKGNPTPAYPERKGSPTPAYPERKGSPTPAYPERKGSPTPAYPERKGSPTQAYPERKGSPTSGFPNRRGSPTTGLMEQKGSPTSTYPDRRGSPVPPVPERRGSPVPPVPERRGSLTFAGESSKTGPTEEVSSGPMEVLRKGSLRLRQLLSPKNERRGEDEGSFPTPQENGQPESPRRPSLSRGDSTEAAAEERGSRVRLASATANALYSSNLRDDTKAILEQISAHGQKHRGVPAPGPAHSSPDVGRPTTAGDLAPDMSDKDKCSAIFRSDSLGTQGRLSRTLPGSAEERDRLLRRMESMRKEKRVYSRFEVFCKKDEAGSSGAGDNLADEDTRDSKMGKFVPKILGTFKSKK

Sequences of proteins named here, by UniProt entry; tags and fusion partners are left off.
UniProt P49674: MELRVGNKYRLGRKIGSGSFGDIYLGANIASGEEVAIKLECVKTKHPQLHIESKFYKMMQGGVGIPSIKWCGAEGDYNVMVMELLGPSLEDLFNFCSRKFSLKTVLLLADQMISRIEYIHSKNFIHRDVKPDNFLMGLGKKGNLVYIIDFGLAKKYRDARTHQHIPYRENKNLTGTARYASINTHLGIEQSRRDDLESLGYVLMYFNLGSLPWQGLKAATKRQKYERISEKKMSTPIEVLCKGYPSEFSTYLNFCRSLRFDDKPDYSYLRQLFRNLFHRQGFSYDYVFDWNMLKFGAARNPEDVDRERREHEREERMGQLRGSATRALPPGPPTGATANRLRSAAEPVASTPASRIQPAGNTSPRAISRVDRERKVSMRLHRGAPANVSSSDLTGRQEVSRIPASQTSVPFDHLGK

[2] = target: T2, N-terminal FLAG-tagged mouse FAM83H^1-697 (pCMV-Tag2B-Fam83h^1-697) (mouse) (UniProt Q148V8)
T2 sequence: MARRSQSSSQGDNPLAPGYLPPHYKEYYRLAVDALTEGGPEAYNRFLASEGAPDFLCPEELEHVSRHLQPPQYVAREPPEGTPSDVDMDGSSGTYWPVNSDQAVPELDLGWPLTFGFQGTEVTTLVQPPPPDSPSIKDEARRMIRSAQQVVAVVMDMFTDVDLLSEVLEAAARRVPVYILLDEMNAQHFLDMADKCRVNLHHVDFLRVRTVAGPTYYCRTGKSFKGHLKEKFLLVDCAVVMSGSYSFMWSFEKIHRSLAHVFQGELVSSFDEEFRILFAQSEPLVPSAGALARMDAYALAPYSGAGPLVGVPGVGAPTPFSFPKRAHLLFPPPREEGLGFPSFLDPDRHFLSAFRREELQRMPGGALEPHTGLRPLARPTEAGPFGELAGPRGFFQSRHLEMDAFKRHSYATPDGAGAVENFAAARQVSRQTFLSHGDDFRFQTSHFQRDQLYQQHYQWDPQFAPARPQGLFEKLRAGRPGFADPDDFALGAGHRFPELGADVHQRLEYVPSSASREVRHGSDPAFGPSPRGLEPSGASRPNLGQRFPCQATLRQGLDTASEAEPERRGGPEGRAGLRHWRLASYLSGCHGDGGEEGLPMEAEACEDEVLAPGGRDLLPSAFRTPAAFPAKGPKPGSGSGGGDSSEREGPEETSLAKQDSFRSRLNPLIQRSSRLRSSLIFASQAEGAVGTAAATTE

[3] = target: T3, N-terminal FLAG-tagged mouse FAM83H^288-1209 (pCMV-Tag2B-Fam83h^288-1209) (mouse) (UniProt Q148V8)
T3 sequence: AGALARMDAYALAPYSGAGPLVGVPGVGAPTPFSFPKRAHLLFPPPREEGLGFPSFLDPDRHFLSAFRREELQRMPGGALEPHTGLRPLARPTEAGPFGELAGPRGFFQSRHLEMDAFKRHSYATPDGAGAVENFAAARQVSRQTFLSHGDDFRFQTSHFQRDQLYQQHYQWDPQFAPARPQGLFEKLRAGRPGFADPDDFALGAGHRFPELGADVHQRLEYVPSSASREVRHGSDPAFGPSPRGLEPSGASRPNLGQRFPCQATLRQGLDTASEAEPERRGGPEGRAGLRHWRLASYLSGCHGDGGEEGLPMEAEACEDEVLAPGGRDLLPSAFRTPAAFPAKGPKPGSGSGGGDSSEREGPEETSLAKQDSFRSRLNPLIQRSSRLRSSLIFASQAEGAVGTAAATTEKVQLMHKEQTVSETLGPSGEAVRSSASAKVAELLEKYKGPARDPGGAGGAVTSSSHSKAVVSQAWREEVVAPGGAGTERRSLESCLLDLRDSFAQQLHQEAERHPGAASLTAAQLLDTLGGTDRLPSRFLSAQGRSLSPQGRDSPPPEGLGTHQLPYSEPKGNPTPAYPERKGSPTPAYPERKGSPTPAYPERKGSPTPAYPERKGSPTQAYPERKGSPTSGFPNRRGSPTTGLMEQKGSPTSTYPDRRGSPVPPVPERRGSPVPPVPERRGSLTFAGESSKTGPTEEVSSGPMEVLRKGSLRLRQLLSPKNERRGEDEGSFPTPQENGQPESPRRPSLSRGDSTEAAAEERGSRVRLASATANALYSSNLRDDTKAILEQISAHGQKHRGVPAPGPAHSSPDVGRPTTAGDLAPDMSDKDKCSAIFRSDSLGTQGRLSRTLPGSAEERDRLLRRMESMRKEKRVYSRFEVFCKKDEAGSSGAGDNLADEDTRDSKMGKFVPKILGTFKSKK

[4] = target: T4, N-terminal FLAG-tagged mouse FAM83H^698-1209 (pCMV-Tag2B-Fam83h^698-1209) (mouse) (UniProt Q148V8)
T4 sequence: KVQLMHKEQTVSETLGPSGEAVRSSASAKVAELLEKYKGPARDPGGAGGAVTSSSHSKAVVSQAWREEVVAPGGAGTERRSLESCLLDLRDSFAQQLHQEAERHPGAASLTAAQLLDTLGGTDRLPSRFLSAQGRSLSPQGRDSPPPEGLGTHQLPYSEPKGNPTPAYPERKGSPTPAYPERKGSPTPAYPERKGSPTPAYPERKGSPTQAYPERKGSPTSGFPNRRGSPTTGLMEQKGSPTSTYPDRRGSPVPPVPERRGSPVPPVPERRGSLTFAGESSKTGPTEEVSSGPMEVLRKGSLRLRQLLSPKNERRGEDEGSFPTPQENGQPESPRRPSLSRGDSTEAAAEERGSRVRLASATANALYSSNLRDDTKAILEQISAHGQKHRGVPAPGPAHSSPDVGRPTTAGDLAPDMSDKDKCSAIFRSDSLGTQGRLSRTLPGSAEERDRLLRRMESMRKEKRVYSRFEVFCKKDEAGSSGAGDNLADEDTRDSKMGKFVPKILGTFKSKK

binding [1]: binds
binding [2]: binds
binding [3]: no binding
binding [4]: no binding
Substance: 6xMyc-tagged CK1ε (pcDNA3-CK1ε-6xMyc) (from UniProt P49674 1-416) (enzyme)

— PMC4707031
